For at least one entry, the source does not settle the construct or the ends of the probe.
Test system: Vibhar transposase
Assay: activity assay
Conditions: 5' phosphate on second strand (SEQ 2); transposase loaded with adapter (225 mM KCl, 9.4% glycerol, 1 mM EDTA, 2 mM DTT, 25 C 4 h then 4 C 3 days) tagmented human genomic DNA; purified recombinant protein; protein details: Tn5-like transposase, 3.07 mg/ml in loading mix

## AAGAACCAGGCTTGTCCTCATAGATCGCACTTGTGATCAAGAGACAG / CTGTCTCTTGATCACAAGTTAAGGCGATTTCTCAAGGCAATGGGACT [Y adapter with Vibhar transposase recognition end]
  activity on this sequence: active

— patent publication US20170283864
